Test results from PubChem BioAssay AID2551 (National Center for Advancing Translational Sciences (NCATS), 2010).
In all, about 310,000 compounds went through this assay and about 17,000 (5.5%) were called active. The shares of active, inactive and inconclusive entries below differ from those in the screen. The call rests on the fitted dose curve; in most records, active means well fitted inhibition curve with a large enough effect; inconclusive means small, poorly fitted or top-dose-only effect, or effect the other way; inactive means no such curve, though single readings can be large or run the other way. Potencies beside an inconclusive call are fits to weak or partial responses and may not hold up.

Protein sequences, listed by entry. Tags and fused reporters are not part of them. Lines headed by an entry give the natural chain unless they say otherwise; changes in a name come on top.
UniProt P51450: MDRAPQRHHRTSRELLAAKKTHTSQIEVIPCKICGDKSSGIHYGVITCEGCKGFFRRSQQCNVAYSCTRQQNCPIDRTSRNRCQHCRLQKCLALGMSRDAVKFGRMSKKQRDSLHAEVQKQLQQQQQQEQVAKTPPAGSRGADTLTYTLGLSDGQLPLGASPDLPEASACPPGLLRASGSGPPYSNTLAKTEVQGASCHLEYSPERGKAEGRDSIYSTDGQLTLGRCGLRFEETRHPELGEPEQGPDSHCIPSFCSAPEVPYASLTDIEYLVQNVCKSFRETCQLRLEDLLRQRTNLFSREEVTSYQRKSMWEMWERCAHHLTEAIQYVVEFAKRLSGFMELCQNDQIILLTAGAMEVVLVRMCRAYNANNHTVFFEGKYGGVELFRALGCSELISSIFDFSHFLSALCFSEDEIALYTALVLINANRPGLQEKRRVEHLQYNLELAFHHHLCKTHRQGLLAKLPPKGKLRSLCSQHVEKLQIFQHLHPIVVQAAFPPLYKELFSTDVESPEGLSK

Each compound was assayed against Nuclear receptor ROR-gamma (Mus musculus) (UniProt P51450) (assay: qHTS for inhibitors of ROR gamma transcriptional activity). Conditions: Drosophila S2 Gal4-RORgamma UAS-luciferase reporter, 20 h; activity change, negative = inhibition: at 53.6 µM (top of the series).
How it was run: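 Compounds are pin-transferred onto Drosophila Schneider cells expressing a copper-inducible Gal4–ROR gamma transactivation domain fusion. After 1 hr, copper sulfate is added to 700 uM final; luciferase is read 20 hr later.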
Further: nearly all actives have a fitted effect of over 60% in size.
On the % scale 0 is the no-effect control and ±100 the full control effect; potency means the concentration at half of the fitted maximal effect.

Potency, active:
COc1ccccc1/C=N/NC(=O)CSc1cc(C)nc2ccccc12 11.2 µM, Cn1nccc1C(=O)NC(=S)Nc1cc(Cl)cc(Cl)c1 2.51 µM, COc1ccc(NC(=S)NC(=O)Cc2ccccc2)cc1 8.91 µM, COCCn1c(C)cc(C(=O)CSc2cc(C)c3ccc(OC)cc3n2)c1C 6.31 µM, COC(=O)CSc1nnc(-c2sc3cc(OC)ccc3c2Cl)n1C 11.2 µM, COCc1nc2ccccc2n1CCc1ccccc1 11.2 µM, NC(=S)N/N=C/c1ccccc1O 3.55 µM, Cc1ccc(Oc2nc(CN3CCOCC3)nc3sc4c(c23)CCC(C)C4)cc1C (centres undefined) 7.94 µM, C=CCN=c1scc(-c2ccc(F)cc2)n1/N=C/c1ccccn1 8.91 µM

Potency, inconclusive:
CC(=O)c1cccc(N=Nc2c(C)[nH]c3ccccc23)c1 12.6 µM [activator, single point], O=C(COC(=O)C1CCN(S(=O)(=O)c2cccs2)CC1)c1cc2ccccc2o1 0.251 µM [activator, single point], O=Nc1c2nc3ccccc3n(O)c-2c2ccccc12 17.8 µM [inhibitor, partial curve, poor fit], NC(=O)c1ccsc1NC(=O)COC(=O)/C=C/c1ccc([N+](=O)[O-])cc1 0.891 µM [activator, single point], Cn1c(N)c(C(=O)COC(=O)c2ccc(Cl)c(S(=O)(=O)N3CCCC3)c2)c(=O)n(C)c1=O 1.41 µM [inhibitor, full curve, poor fit], Cc1ccn(S(=O)(=O)c2ccc(C(C)(C)C)cc2)n1 31.6 µM [inhibitor, single point], Cc1cc(Cl)cc(Cl)c1OCC(=O)NCc1ccco1 31.6 µM [inhibitor, single point], Cc1occc1-c1nnc(SCc2nnc(-c3ccc(Cl)cc3)o2)n1C 3.55 µM [activator, full curve], COc1ccc(OC)c(NC(=O)C2CCN(c3cc(-c4ccccc4)nc4ncnn34)CC2)c1 35.5 µM [inhibitor, single point], CCOC(=O)C1CCN(C(=O)CN(Cc2ccc(Cl)cc2)S(C)(=O)=O)CC1 35.5 µM [activator, single point], CCN(CC)S(=O)(=O)c1ccc(Cl)c(NC(=O)COc2ccccc2[N+](=O)[O-])c1 6.31 µM [activator, partial curve, poor fit], CCN1CCC2(CC1)N=C(c1ccc(F)cc1)C(=S)N2C(=O)c1ccc(C)cc1 10 µM [inhibitor, partial curve, poor fit], COC(=O)c1ccc(C(/C=C/[C@@H](C)C(=O)NCCc2c[nH]c3ccccc23)NC(=O)OCc2ccccc2)cc1 (some centres undefined) 22.4 µM [activator, single point], NC(=S)Nc1nc2ccccc2s1 5.01 µM [inhibitor, full curve, poor fit], O=c1cc(-c2ccccc2)[nH]c2ccc(F)cc12 31.6 µM [activator, single point], COc1ccccc1OCCSc1nc2ccc([N+](=O)[O-])cc2s1 11.2 µM [activator, partial curve], CC(C)c1ccc(NC(=S)NNC(=O)c2cccnc2)cc1 2.24 µM [inhibitor, full curve, poor fit], N#C/C(=N\Nc1cccc(F)c1)C(=O)C1CC1 35.5 µM [activator, single point], COc1ccc(NC(=O)c2ccc(COc3ccccc3Br)o2)cc1OC 11.2 µM [activator, partial curve], O=C1CCCN2N=C(SCC(=O)Nc3ccc(Cl)cc3)SC2=N1 14.1 µM [activator, partial curve, poor fit], Cc1ccccc1C(=O)NCc1nnc(SCC(=O)N2c3ccccc3Sc3ccccc32)n1C 20 µM [activator, single point], Cc1ccc(N2CC(C(=O)OCc3ccccc3)CC2=O)cc1 (centres undefined) 35.5 µM [inhibitor, single point]

Potency, inactive:
Fc1ccc(C(c2nnnn2Cc2cccs2)N2CCN(C3CCCCC3)CC2)cc1 (centres undefined), COc1ccc2nc(N3CCC(O)CC3)c(C#N)cc2c1, CCC(C)C(NC(=O)c1ccc(Cl)cc1Cl)C(=O)O (centres undefined), COc1ccc(C(=O)N2CCCC(Nc3ccc(C)c(C)c3)C2)c(OC)n1 (centres undefined), CC(C)OCCOc1ccc2oc(-c3ccco3)cc(=O)c2c1, Cc1sc2nc(C3CC3)nc(N3CCN(C(=O)c4ccc(Cl)cc4)CC3)c2c1C, COc1ccc(S(=O)(=O)Nc2ccccn2)c(C)c1C, Cc1c(C)c2c(OCC(=O)N3CCC(C(=O)NCC(C)C)CC3)cc3c(c2oc1=O)CCC(C)(C)O3, Cc1ccc(-c2csc(NC(=O)c3cccc(S(=O)(=O)N4CCN(C)CC4)c3)n2)cc1, NNC(=O)c1cc2c(N3CCC(Cc4ccccc4)CC3)ncnc2s1, Cc1cccc(-c2nc3ccccc3c(=O)[nH]2)c1, O=C(O)c1cccc(NC2=Nc3cccc4cccc2c34)c1, CC(=O)NC(=S)Nc1ccccc1C(=O)NC1CCCCC1, COc1ccc(Br)cc1C1Nc2ccccc2C(=O)N1NC(=O)c1ccncc1 (centres undefined), COc1ccc(C(C(=O)NC2CCCCC2)N(C(=O)c2cccs2)c2ccc3c(c2)OCO3)cc1 (centres undefined), Nc1c2nc(-c3ccccc3)[nH]c(=O)c2nc(=O)n1-c1ccccc1, O=S(=O)(N1CCOCC1)N1CCCN(S(=O)(=O)N2CCOCC2)CC1

Activity change, negative = inhibition, inactive:
CCOCCCNc1nc(-c2ccccc2)nc2ccccc12 24.9% [at 1.91 µM]
